Reference: PubChem BioAssay AID1259308 (NCATS, 2017)

Assay: 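Candidate targets for better recombinant protein yield in mammalian cells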 (primary screen)
Cells: human HEK293 embryonic kidney cells stably expressing firefly luciferase (HEK-CMV-Luc2-Hygro)
Reagents: single siRNA against human genes, 0.8 pmol siRNA per well
Timing: 72 h
Measured: 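Reporter luminescence and viable-cell signal on separate replicate plates, given as percent of non-targeting control and median/MAD z-scores, plus per-cell luciferase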
Scale: total luciferase, z-score and total luciferase, % of control: higher = more reporter protein produced
Active means: 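Active when the median/MAD z-score for overall luciferase is greater than 3; a gene was taken forward for validation with new siRNAs if at least two of its three siRNAs passed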
Calls: active = raised luciferase; inactive = no rise
Here is an unselected part of about 59,000 deposited reagents. About 1,510 of all reagents (2.6%) were called active. 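Calls use total luciferase alone and ignore viability, so some active siRNAs may act by altering cell number.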 Unmarked entries are inactive. Reagents against one gene are numbered here. Not all columns of the deposit are shown.

For SERHL (serine hydrolase like (pseudogene)) #1, what was measured?
total luciferase, z-score: -1.02; total luciferase, % of control: 61.7

With SERHL (serine hydrolase like (pseudogene)) #2, what does the deposit list?
total luciferase, z-score: -0.227; total luciferase, % of control: 77.4

For SERHL (serine hydrolase like (pseudogene)) #3, what was measured?
total luciferase, z-score: -1.79; total luciferase, % of control: 46.2

How did the screen score DCAF7 (DDB1 and CUL4 associated factor 7) #1?
total luciferase, z-score: 1.42; total luciferase, % of control: 110

How did the screen score DCAF7 (DDB1 and CUL4 associated factor 7) #2?
total luciferase, z-score: 1.33; total luciferase, % of control: 108

Which result is listed for DCAF7 (DDB1 and CUL4 associated factor 7) #3?
total luciferase, z-score: 1.43; total luciferase, % of control: 110

What did the screen give for OR2A2 (olfactory receptor family 2 subfamily A member 2) #1?
total luciferase, z-score: -0.189; total luciferase, % of control: 78.1

For OR2A2 (olfactory receptor family 2 subfamily A member 2) #2, what does the deposit list?
total luciferase, z-score: 0.742; total luciferase, % of control: 96.6

What is on record for OR2A2 (olfactory receptor family 2 subfamily A member 2) #3?
total luciferase, z-score: -0.959; total luciferase, % of control: 62.8

For MRPS31 (mitochondrial ribosomal protein S31) #1, what was measured?
total luciferase, z-score: 1.65; total luciferase, % of control: 115

Which result is listed for MRPS31 (mitochondrial ribosomal protein S31) #2?
total luciferase, z-score: -0.036; total luciferase, % of control: 81.2

For MRPS31 (mitochondrial ribosomal protein S31) #3, what was measured?
total luciferase, z-score: -0.873; total luciferase, % of control: 64.5

With LSP1P5 (LSP1 pseudogene 5) #1, what was measured?
total luciferase, z-score: -0.0866; total luciferase, % of control: 80.2

With LSP1P5 (LSP1 pseudogene 5) #2, how do the results read?
total luciferase, z-score: 0.573; total luciferase, % of control: 93.3

How did the screen score LSP1P5 (LSP1 pseudogene 5) #3?
total luciferase, z-score: 1.31; total luciferase, % of control: 108

Which result is listed for ANGPTL6 (angiopoietin like 6) #1?
total luciferase, z-score: -0.457; total luciferase, % of control: 72.8

For ANGPTL6 (angiopoietin like 6) #2, how do the results read?
total luciferase, z-score: 0.858; total luciferase, % of control: 98.9

What is on record for ANGPTL6 (angiopoietin like 6) #3?
total luciferase, z-score: -1.59; total luciferase, % of control: 50.3

With OR6C6 (olfactory receptor family 6 subfamily C member 6) #1, what does the deposit list?
total luciferase, z-score: 0.732; total luciferase, % of control: 96.4

With OR6C6 (olfactory receptor family 6 subfamily C member 6) #2, how do the results read?
total luciferase, z-score: 0.22; total luciferase, % of control: 86.3

For OR6C6 (olfactory receptor family 6 subfamily C member 6) #3, what was measured?
total luciferase, z-score: 0.748; total luciferase, % of control: 96.8

Sorted by “total luciferase, z-score” (high to low): 3 of the entries above.
LSP1P5 (LSP1 pseudogene 5) #2 — total luciferase, z-score = 0.573; total luciferase, % of control = 93.3
LSP1P5 (LSP1 pseudogene 5) #1 — total luciferase, z-score = -0.0866; total luciferase, % of control = 80.2
MRPS31 (mitochondrial ribosomal protein S31) #3 — total luciferase, z-score = -0.873; total luciferase, % of control = 64.5

The listing continues:
What did the screen give for NRIP3 (nuclear receptor interacting protein 3) #1?
total luciferase, z-score: -0.173; total luciferase, % of control: 78.4

For NRIP3 (nuclear receptor interacting protein 3) #2, what was measured?
total luciferase, z-score: 0.103; total luciferase, % of control: 83.9

Which result is listed for NRIP3 (nuclear receptor interacting protein 3) #3?
total luciferase, z-score: -2.18; total luciferase, % of control: 38.5

What is on record for CUL4B (cullin 4B) #1?
total luciferase, z-score: -1.29; total luciferase, % of control: 56.2

With CUL4B (cullin 4B) #2, what was measured?
total luciferase, z-score: 0.215; total luciferase, % of control: 86.2

What did the screen give for CUL4B (cullin 4B) #3?
total luciferase, z-score: 0.583; total luciferase, % of control: 93.5

For PDZD7 (PDZ domain containing 7) #1, what was measured?
total luciferase, z-score: -0.281; total luciferase, % of control: 76.3

What is on record for PDZD7 (PDZ domain containing 7) #2?
total luciferase, z-score: -1.16; total luciferase, % of control: 58.8

What is on record for PDZD7 (PDZ domain containing 7) #3?
total luciferase, z-score: 1.32; total luciferase, % of control: 108

What did the screen give for TSHZ2 (teashirt zinc finger homeobox 2) #1?
total luciferase, z-score: 0.191; total luciferase, % of control: 85.7

What did the screen give for TSHZ2 (teashirt zinc finger homeobox 2) #2?
total luciferase, z-score: -0.194; total luciferase, % of control: 78

What is on record for TSHZ2 (teashirt zinc finger homeobox 2) #3?
total luciferase, z-score: -0.127; total luciferase, % of control: 79.4
